PubChem BioAssay AID1224829 – NIAID, 2016

Test: 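Follow-up of TLR4-NF-kappaB regulators using six separate siRNAs for each gene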 (follow-up of hits)
Cells: mouse RAW264.7 G9 macrophage reporter cells
Knock-down reagent: single siRNA against mouse genes, 100 nM
Time to read-out: 2 days of siRNA knock-down, then 40 min of LPS before fixing
Challenge: LPS (Salmonella minnesota R595) at 10 ng/ml
Measurement: 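Imaging of GFP-p65 after 40 min of LPS; nuclear over perinuclear ring intensity ratio, scaled to plate median and non-targeting control wells, given as z-score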
Direction: p65 translocation z-score: higher = more nuclear NF-kappaB p65 after LPS
Active means: 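Active means the replicate-mean z-score lies beyond plus or minus 2, in either direction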
Meaning of the calls: active = changed p65 translocation (either direction); inactive = no clear change
Shown is a random part of about 3,800 reagents tested. 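Calls cover raised and lowered translocation; gene median uses one vendor's three siRNAs; qiagen siRNAs acted more weakly than ambion siRNAs.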 Not all columns of the deposit are shown. No sequences are given here.

Or9m1 (olfactory receptor family 9 subfamily M member 1) [SID315488691], siRNA vendor or control pool ambion single siRNA
- p65 translocation z-score, replicate mean: -6.18
- outcome: active

Or9m1 (olfactory receptor family 9 subfamily M member 1) [SID315488692], siRNA vendor or control pool ambion single siRNA
- p65 translocation z-score, replicate mean: -7.93
- outcome: active

Or9m1 (olfactory receptor family 9 subfamily M member 1) [SID315488693], siRNA vendor or control pool ambion single siRNA
- p65 translocation z-score, replicate mean: 1.49
- outcome: inactive

Or9m1 (olfactory receptor family 9 subfamily M member 1) [SID315488694], siRNA vendor or control pool qiagen single siRNA
- p65 translocation z-score, replicate mean: 0.292
- outcome: inactive

Or9m1 (olfactory receptor family 9 subfamily M member 1) [SID315488695], siRNA vendor or control pool qiagen single siRNA
- p65 translocation z-score, replicate mean: 1.92
- outcome: inactive

Or9m1 (olfactory receptor family 9 subfamily M member 1) [SID315488696], siRNA vendor or control pool qiagen single siRNA
- p65 translocation z-score, replicate mean: 2.66
- outcome: active

Zfp938 (zinc finger protein 938) [SID315488457], siRNA vendor or control pool ambion single siRNA
- p65 translocation z-score, replicate mean: -1.45
- outcome: inactive

Zfp938 (zinc finger protein 938) [SID315488458], siRNA vendor or control pool ambion single siRNA
- p65 translocation z-score, replicate mean: 0.334
- outcome: inactive

Zfp938 (zinc finger protein 938) [SID315488459], siRNA vendor or control pool ambion single siRNA
- p65 translocation z-score, replicate mean: -4.38
- outcome: active

Zfp938 (zinc finger protein 938) [SID315488460], siRNA vendor or control pool qiagen single siRNA
- p65 translocation z-score, replicate mean: 1.87
- outcome: inactive

Zfp938 (zinc finger protein 938) [SID315488461], siRNA vendor or control pool qiagen single siRNA
- p65 translocation z-score, replicate mean: -0.257
- outcome: inactive

Zfp938 (zinc finger protein 938) [SID315488462], siRNA vendor or control pool qiagen single siRNA
- p65 translocation z-score, replicate mean: 1.75
- outcome: inactive

Bpifa1 (BPI fold containing family A, member 1) [SID315484659], siRNA vendor or control pool ambion single siRNA
- p65 translocation z-score, replicate mean: -0.385
- outcome: inactive

Bpifa1 (BPI fold containing family A, member 1) [SID315484660], siRNA vendor or control pool ambion single siRNA
- p65 translocation z-score, replicate mean: -4.39
- outcome: active

Bpifa1 (BPI fold containing family A, member 1) [SID315484661], siRNA vendor or control pool ambion single siRNA
- p65 translocation z-score, replicate mean: -0.921
- outcome: inactive

Bpifa1 (BPI fold containing family A, member 1) [SID315484662], siRNA vendor or control pool qiagen single siRNA
- p65 translocation z-score, replicate mean: 1.18
- outcome: inactive

Bpifa1 (BPI fold containing family A, member 1) [SID315484663], siRNA vendor or control pool qiagen single siRNA
- p65 translocation z-score, replicate mean: 0.694
- outcome: inactive

Bpifa1 (BPI fold containing family A, member 1) [SID315484664], siRNA vendor or control pool qiagen single siRNA
- p65 translocation z-score, replicate mean: 0.246
- outcome: inactive

Ssb (small RNA binding exonuclease protection factor La) [SID315484914], siRNA vendor or control pool ambion single siRNA
- p65 translocation z-score, replicate mean: -0.817
- outcome: inactive

Ssb (small RNA binding exonuclease protection factor La) [SID315484915], siRNA vendor or control pool ambion single siRNA
- p65 translocation z-score, replicate mean: -3.61
- outcome: active

Ssb (small RNA binding exonuclease protection factor La) [SID315484916], siRNA vendor or control pool ambion single siRNA
- p65 translocation z-score, replicate mean: -3.07
- outcome: active

Ssb (small RNA binding exonuclease protection factor La) [SID315484917], siRNA vendor or control pool qiagen single siRNA
- p65 translocation z-score, replicate mean: 1.11
- outcome: inactive

Ssb (small RNA binding exonuclease protection factor La) [SID315484918], siRNA vendor or control pool qiagen single siRNA
- p65 translocation z-score, replicate mean: 0.153
- outcome: inactive

Ssb (small RNA binding exonuclease protection factor La) [SID315484919], siRNA vendor or control pool qiagen single siRNA
- p65 translocation z-score, replicate mean: -2
- outcome: inactive

Rps6kb1 (ribosomal protein S6 kinase B1) [SID315486735], siRNA vendor or control pool ambion single siRNA
- p65 translocation z-score, replicate mean: -3.59
- outcome: active

Rps6kb1 (ribosomal protein S6 kinase B1) [SID315486736], siRNA vendor or control pool ambion single siRNA
- p65 translocation z-score, replicate mean: -1.56
- outcome: inactive

Rps6kb1 (ribosomal protein S6 kinase B1) [SID315486737], siRNA vendor or control pool ambion single siRNA
- p65 translocation z-score, replicate mean: -2.48
- outcome: active

Rps6kb1 (ribosomal protein S6 kinase B1) [SID315486738], siRNA vendor or control pool qiagen single siRNA
- p65 translocation z-score, replicate mean: 1.68
- outcome: inactive

Rps6kb1 (ribosomal protein S6 kinase B1) [SID315486739], siRNA vendor or control pool qiagen single siRNA
- p65 translocation z-score, replicate mean: -0.235
- outcome: inactive

Rps6kb1 (ribosomal protein S6 kinase B1) [SID315486740], siRNA vendor or control pool qiagen single siRNA
- p65 translocation z-score, replicate mean: -1.4
- outcome: inactive

Part of the list above in another layout:
| target gene | PubChem SID | siRNA vendor or control pool | p65 translocation z-score, replicate mean | outcome |
| --- | --- | --- | --- | --- |
| Bpifa1 (BPI fold containing family A, member 1) | SID315484661 | ambion single siRNA | -0.921 | inactive |
| Bpifa1 (BPI fold containing family A, member 1) | SID315484662 | qiagen single siRNA | 1.18 | inactive |
| Bpifa1 (BPI fold containing family A, member 1) | SID315484663 | qiagen single siRNA | 0.694 | inactive |
| Bpifa1 (BPI fold containing family A, member 1) | SID315484664 | qiagen single siRNA | 0.246 | inactive |
